No constants are given. Whether binding was seen depends on the method and setting. Binding seen in cells or lysates may run through a third protein. Some results given as binding are weak or reduced against the parent protein; the word gives no strength.
Assays:
[1] = biological target: Ragulator complex protein LAMTOR2, Flag-tagged (UniProt Q9JHS3); assay: condition: only chondrocytes treated with IL-1β (5 ng/mL) for 48 h; co-IP; as a2, but chondrocytes treated with IL-1β (5 ng/mL) for 48 h before lysis
[2] = biological target: Ragulator complex protein LAMTOR2, Flag-tagged (UniProt Q9JHS3); assay: co-IP; mouse primary chondrocytes transfected with Bclaf1-Flag or Lamtor2-Flag plasmid, without IL-1β; NP-40 lysate; protein A/G magnetic beads with the indicated antibodies, overnight at 4 °C, 4 washes; western blotting
[3] = biological target: B-cell lymphoma-2-associated transcription factor 1 (BCLAF1), Flag-tagged (UniProt Q8K019); assay: condition: only chondrocytes treated with IL-1β (5 ng/mL) for 48 h; co-IP; as a2, but chondrocytes treated with IL-1β (5 ng/mL) for 48 h before lysis
[4] = biological target: B-cell lymphoma-2-associated transcription factor 1 (BCLAF1), Flag-tagged (UniProt Q8K019); assay: co-IP; mouse primary chondrocytes transfected with Bclaf1-Flag or Lamtor2-Flag plasmid, without IL-1β; NP-40 lysate; protein A/G magnetic beads with the indicated antibodies, overnight at 4 °C, 4 washes; western blotting

By UniProt entry, the sequences of proteins in these tests, tags left out.
UniProt Q9JHS3: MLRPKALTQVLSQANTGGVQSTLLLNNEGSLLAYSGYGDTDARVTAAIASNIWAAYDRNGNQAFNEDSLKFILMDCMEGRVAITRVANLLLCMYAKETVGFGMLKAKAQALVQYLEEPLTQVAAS
UniProt Q8K019: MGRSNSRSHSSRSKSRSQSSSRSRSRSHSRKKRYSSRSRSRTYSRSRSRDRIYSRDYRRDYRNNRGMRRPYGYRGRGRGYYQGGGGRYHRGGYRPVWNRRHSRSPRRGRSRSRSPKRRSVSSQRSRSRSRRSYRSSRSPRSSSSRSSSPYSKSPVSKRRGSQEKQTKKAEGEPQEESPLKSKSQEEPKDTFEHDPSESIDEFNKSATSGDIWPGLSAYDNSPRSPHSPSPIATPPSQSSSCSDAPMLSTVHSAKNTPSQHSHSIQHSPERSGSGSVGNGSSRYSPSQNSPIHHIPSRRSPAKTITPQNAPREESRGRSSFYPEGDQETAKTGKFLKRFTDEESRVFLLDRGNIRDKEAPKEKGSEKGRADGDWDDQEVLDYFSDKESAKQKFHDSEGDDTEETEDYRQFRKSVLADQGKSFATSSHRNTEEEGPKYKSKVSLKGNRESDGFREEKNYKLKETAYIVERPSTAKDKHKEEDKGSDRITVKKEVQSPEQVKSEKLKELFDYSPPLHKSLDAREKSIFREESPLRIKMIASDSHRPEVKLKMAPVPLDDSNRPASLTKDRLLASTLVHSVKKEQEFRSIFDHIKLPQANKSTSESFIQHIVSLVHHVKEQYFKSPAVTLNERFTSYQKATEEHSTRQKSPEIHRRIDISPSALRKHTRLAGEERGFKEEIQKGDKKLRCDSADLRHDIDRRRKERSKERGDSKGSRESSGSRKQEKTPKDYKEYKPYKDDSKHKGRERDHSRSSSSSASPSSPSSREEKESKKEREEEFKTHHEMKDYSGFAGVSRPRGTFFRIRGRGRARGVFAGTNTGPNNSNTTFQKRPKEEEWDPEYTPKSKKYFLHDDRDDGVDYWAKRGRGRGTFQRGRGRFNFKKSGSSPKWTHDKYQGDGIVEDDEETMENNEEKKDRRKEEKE

Substance | binding [1] | binding [2] | binding [3] | binding [4]
B-cell lymphoma-2-associated transcription factor 1 (BCLAF1), endogenous (from UniProt Q8K019 1-919) | no binding | binds |  | 
Ragulator complex protein LAMTOR2 (late endosomal/lysosomal adaptor and MAPK and MTOR activator 2), endogenous (from UniProt Q9JHS3 1-125) |  |  | no binding | binds
